Laboratory results: PubChem BioAssay AID330 (DTP/NCI, 2004)
The list does not hold the whole screen: it gathers tests that were run many times, whatever their T/C, doses with no T/C, and many T/C values between a quarter and a half above the control. Further doses and runs are listed elsewhere. T/C is the treated group as % of the vehicle group. Some entries give survivors of the animals treated and no T/C: the source files T/C as zero there, which appears to mark a toxic dose or a test without result, not a measured value. Some survivor counts are full or nearly so, which does not show that the dose was tolerated: survival well below the control is almost never listed, so the zero probably covers shortened survival too. Survivors were counted at the toxicity check, usually on the fifth day, unless a day is given; later deaths do not show. Schedules are NCI's codes, taken here to give the interval after Q, in days (D) or hours (H), and the number of doses after X. Some entries hold several experiments; their values stand side by side, smallest first. Where survival is the endpoint, this PubChem deposit counts one and a half times the control or more as active, and values a quarter to a half above the control carry no call in these data; other NCI protocols may use other cut-offs. Some T/C values carry the count of animals alive at the toxicity check (mostly the fifth day); where none is given, no animal had died by that day.

System: P388 leukemia ip, CD2F1 mice, survival T/C
Experiment: NCI In Vivo Anticancer Drug Screen. Data for tumor model P388 Leukemia (intraperitoneal) in CD2F1 (CDF1) mice
Conditions: T/C endpoint: median survival time, higher T/C = longer survival
[1] = dose: 30.0 mg/kg/injection, schedule: Q01DX005 (ip), vehicle: saline with Tween-80
[2] = dose: 100.0 mg/kg/injection, schedule: Q01DX005 (ip), vehicle: Klucel (hydroxypropylcellulose) (HPC)
[3] = dose: 200.0 mg/kg/injection, schedule: Q01DX005 (ip), vehicle: Klucel (hydroxypropylcellulose) (HPC)
[4] = dose: 25.0 mg/kg/injection, schedule: Q01DX005 (ip), vehicle: saline with Tween-80
[5] = dose: 50.0 mg/kg/injection, schedule: Q01DX005 (ip), vehicle: saline with Tween-80
[6] = dose: 100.0 mg/kg/injection, schedule: Q01DX005 (ip), vehicle: saline with Tween-80
[7] = dose: 200.0 mg/kg/injection, schedule: Q01DX005 (ip), vehicle: saline with Tween-80
[8] = dose: 25.0 mg/kg/injection, schedule: Q01DX009 (ip), vehicle: saline with Tween-80
[9] = dose: 400.0 mg/kg/injection, schedule: Q01DX001 (ip), vehicle: saline with Tween-80
[10] = dose: 50.0 mg/kg/injection, schedule: Q01DX009 (ip), vehicle: water
[11] = dose: 100.0 mg/kg/injection, schedule: Q01DX009 (ip), vehicle: water
[12] = dose: 120.0 mg/kg/injection, schedule: Q01DX005 (ip), vehicle: saline with Tween-80
[13] = dose: 240.0 mg/kg/injection, schedule: Q01DX005 (ip), vehicle: saline with Tween-80

With `COc1cc(C(=O)CC(=O)Cc2ccc3ccccc3n2)cc(OC)c1OC` the survivor count (dose: 15.0 mg/kg/injection, schedule: Q01DX005 (ip), vehicle: saline with Tween-80) was 6 of 6, the survivor count [1] was 6 of 6 and the survivor count (dose: 60.0 mg/kg/injection, schedule: Q01DX005 (ip), vehicle: saline with Tween-80) was 6 of 6.

`CC(=O)Nc1ccc(OCCOC(=O)Nc2ccc(C)cc2[N+](=O)[O-])cc1` was tested, and the survivor count (dose: 100.0 mg/kg/injection, schedule: Q01DX009 (ip), vehicle: Klucel (hydroxypropylcellulose) (HPC)) was 6 of 6 and the survivor count (dose: 200.0 mg/kg/injection, schedule: Q01DX009 (ip), vehicle: Klucel (hydroxypropylcellulose) (HPC)) was 6 of 6.

In the case of `C=C1CC2(CCCC(=O)C2)OC1=O` (configuration not stated), the survivor count [2] is reported as 3 of 5 and the survivor count [3] is reported as 3 of 5.

In the case of `O=C(Nc1ccc(C2=NCCN2)cc1)C(=O)Nc1ccc(C2=NCCN2)cc1`, the T/C [4] is reported as 133 % of control, the T/C [5] is reported as 128 and 133 % of control and the T/C [6] is reported as 136 % of control [4 of 5 alive]. For the same compound, the survivor count [6] was 1 of 6 and the survivor count [7] was 0 of 6.

In the case of `CCOC(=O)/N=[N+](\[O-])c1cccc(Br)c1`, the survivor count (dose: 200.0 mg/kg/injection, schedule: Q01DX001 (ip), vehicle: Klucel (hydroxypropylcellulose) (HPC)) is reported as 1 of 6 and the survivor count (dose: 400.0 mg/kg/injection, schedule: Q01DX001 (ip), vehicle: Klucel (hydroxypropylcellulose) (HPC)) is reported as 0 of 6.

`Cc1ccnc(NCc2ccccn2)c1` was tested, and the survivor count [7] was 0 of 6.

In the case of `O=[N+]([O-])c1ccc(C=C2C(Cl)=C(Cl)C(Cl)=C2Cl)cc1`, the survivor count [8] is reported as 3 of 6.

In the case of `CC(C)NCCO`, the survivor count (dose: 100.0 mg/kg/injection, schedule: Q01DX009 (ip), vehicle: saline) is reported as 5 of 6 and the survivor count (dose: 200.0 mg/kg/injection, schedule: Q01DX009 (ip), vehicle: saline) is reported as 2 of 6.

In the case of `Nc1nc(N)c2cc(N3CCCC3c3ccc(Cl)cc3)ccc2n1` (configuration not stated), the survivor count (dose: 12.5 mg/kg/injection, schedule: Q01DX009 (ip), vehicle: Klucel (hydroxypropylcellulose) (HPC)) is reported as 0 of 6, 3 of 6, 6 of 6 and the survivor count (dose: 25.0 mg/kg/injection, schedule: Q01DX009 (ip), vehicle: Klucel (hydroxypropylcellulose) (HPC)) is reported as 0 of 6.

For `COc1ccc2c(c1)[C@]13CCN(C)[C@H](C2)[C@@H]1CCC1(C3)OCCO1`, the survivor count [9] was 0 of 6.

In the case of `COc1cccc(C(Cc2ccccc2)Nc2ccccc2)c1OC` (configuration not stated), the survivor count [2] is reported as 6 of 6.

For `Cc1cccc(=N)n1CCC(=O)O`, the survivor count (dose: 400.0 mg/kg/injection, schedule: Q01DX009 (ip), vehicle: saline) was 4 of 6.

For `CC(=O)NCc1ccc(N2C(N)=NC(N)=NC2(C)C)cc1`, the survivor count (dose: 100.0 mg/kg/injection, schedule: Q04DX002 (ip), vehicle: saline) was 6 of 6, the survivor count (dose: 200.0 mg/kg/injection, schedule: Q04DX002 (ip), vehicle: saline) was 0 of 6 and the survivor count (dose: 400.0 mg/kg/injection, schedule: Q04DX002 (ip), vehicle: saline) was 0 of 6.

`C#CC(C)OCC(C)OC(C)=O` (configuration not stated) was tested, and the survivor count (dose: 335.0 mg/kg/injection, schedule: Q01DX009 (ip), vehicle: saline with Tween-80) was 3 of 6.

For `COc1ccc2cc3c[n+](C)ccc3cc2c1OC`, the survivor count [10] was 1 of 6, the survivor count [11] was 3 of 6 and the survivor count (dose: 200.0 mg/kg/injection, schedule: Q01DX009 (ip), vehicle: water) was 0 of 6.

With `CCOc1nc2ccccc2nc1OCC` the survivor count [3] was 5 of 5.

`COCc1cnc2nc(N)nc(N)c2n1` was tested, and the survivor count (dose: 6.25 mg/kg/injection, schedule: Q01DX009 (ip), vehicle: distilled water + Tween-80) was 4 of 6.

With `COc1ccc(/C=N/N=c2/sc3ccccc3n2CC(=O)O)cc1` the survivor count [9] was 6 of 6.

`CCCNCC(O)COc1ccc2c3c(c(=O)oc2c1)CCC3` (configuration not stated) was tested, and the survivor count (dose: 240.0 mg/kg/injection, schedule: Q01DX005 (ip), vehicle: Klucel (hydroxypropylcellulose) (HPC)) was 3 of 6.

`COc1ccc2cc1Oc1ccc(cc1)CC1c3cc(c(OC)cc3CCN1C)Oc1c(OC)c(OC)c(O)c3c1C(C2)N(C)CC3` (configuration not stated) was tested, and the survivor count (dose: 200.0 mg/kg/injection, schedule: Q01DX001 (ip), vehicle: saline with Tween-80) was 3 of 6 and the survivor count [9] was 0 of 6.

`O=C1O/C(=C2/OC(=O)c3ccccc32)c2ccccc21` was tested, and the survivor count [8] was 6 of 6 and the survivor count (dose: 100.0 mg/kg/injection, schedule: Q01DX009 (ip), vehicle: saline with Tween-80) was 5 of 6.

With `O=c1[nH]nc(Sc2ccccc2)c2nncn12` the survivor count [7] was 1 of 6.

For `COc1cc([C@@H]2c3cc4c(cc3C[C@@H]3COC(=O)C32)OCO4)cc(OC)c1O` (some centres not stated), the T/C [1] was 136 % of control, the T/C [12] was 130 % of control and the survivor count [12] was 6 of 6. The survivor count (dose: 180.0 mg/kg/injection, schedule: Q01DX005 (ip), vehicle: saline with Tween-80) was 6 of 6.

For `CC1Oc2cc3c(-c4c(O)cc(O)c5c(O)c6c(cc45)OC(C)C(C)C6=O)c(O)cc(O)c3c(O)c2C(=O)C1C` (configuration not stated), the T/C (dose: 5.0 mg/kg/injection, schedule: Q01DX005 (ip), vehicle: saline) was 136 % of control.

In the case of `CN(C)c1ccc2nc3ccc(N)cc3[n+](-c3ccccc3)c2c1`, the survivor count [5] is reported as 0 of 5, the survivor count [6] is reported as 0 of 5 and the survivor count [7] is reported as 0 of 5.

In the case of `O=C(Nc1c(Cl)cccc1Cl)Oc1ccc(Cl)cc1`, the survivor count [13] is reported as 2 of 6.

In the case of `COc1ccc(C(C)c2cc3c(cc2OC)OCO3)cc1` (configuration not stated), the T/C [4] is reported as 98, 102, 108, 117 % of control, the T/C [5] is reported as 112, 114, 116, 120, 132 % of control and the T/C [6] is reported as 108, 126 [5 of 6 alive], 154, 176, 178 % of control. The T/C [7] was 97 [4 of 6 alive] and 174 % of control [5 of 6 alive] and the survivor count [7] was 2 of 6, 3 of 6, 4 of 6.

For `O=C1CSC2(CCN(CCCN3c4ccccc4Sc4ccc(Cl)cc43)CC2)N1`, the survivor count (dose: 200.0 mg/kg/injection, schedule: Q01DX009 (ip), vehicle: saline with Tween-80) was 0 of 6.

For `CCCCCCCCCCN(CCCCCCCCCC)C1CC(OC2CC(O)(C(C)O)Cc3c(O)c4c(c(O)c32)C(=O)c2c(OC)cccc2C4=O)OC(C)C1O` (configuration not stated), the survivor count (dose: 150.0 mg/kg/injection, schedule: Q04DX003 (ip), vehicle: water) was 0 of 3.

`O=NNc1ccc(S(=O)(=O)c2ccc3ccccc3c2)cn1` was tested, and the survivor count (dose: 25.0 mg/kg/injection, schedule: Q01DX009 (ip), vehicle: water) was 6 of 6, the survivor count [10] was 6 of 6 and the survivor count [11] was 0 of 6.

`N=c1ccccn1CCO` was tested, and the survivor count (dose: 240.0 mg/kg/injection, schedule: Q01DX005 (ip), vehicle: saline) was 3 of 6.

With `Cn1cnc([N+](=O)[O-])c1S(N)(=O)=O` the T/C [8] was 130 % of control and the T/C (dose: 50.0 mg/kg/injection, schedule: Q01DX009 (ip), vehicle: saline with Tween-80) was 130 % of control.

In the case of `CCCCCCCCCCCCCCCCCCCCCCCCC(O)C(=O)NC(CO)C(O)C(O)CCCCCCCCCCCCCC` (configuration not stated), the survivor count (dose: 12.5 mg/kg/injection, schedule: Q04DX003 (ip), vehicle: saline with Tween-80) is reported as 6 of 6, the survivor count (dose: 25.0 mg/kg/injection, schedule: Q04DX003 (ip), vehicle: saline with Tween-80) is reported as 6 of 6 and the survivor count (dose: 50.0 mg/kg/injection, schedule: Q04DX003 (ip), vehicle: saline with Tween-80) is reported as 6 of 6.

For `CNC1C(O)C2Oc3c(cc(O)c4c3C(=O)c3cc5c(c(O)c3C4=O)C(OC)CC(C)(O)C5)C(C)(O2)C1O` (configuration not stated), the survivor count (dose: 5.0 mg/kg/injection, schedule: Q01DX009 (ip), vehicle: saline) was 6 of 6 and the survivor count (dose: 10.0 mg/kg/injection, schedule: Q01DX009 (ip), vehicle: saline) was 6 of 6.

For `CCN(CC)CCOc1ccc(C(C)=O)cc1`, the survivor count [7] was 0 of 6.

For `Nc1nc(SCc2ccccc2)c2ncn(CCCl)c2n1`, the survivor count (dose: 12.5 mg/kg/injection, schedule: Q01DX009 (ip), vehicle: saline) was 6 of 6, the survivor count (dose: 12.5 mg/kg/injection, schedule: Q01DX009 (ip), vehicle: suspension in saline) was 6 of 6 and the survivor count (dose: 25.0 mg/kg/injection, schedule: Q01DX009 (ip), vehicle: suspension in saline) was 6 of 6.

`COc1cc(Br)c(-c2coc3c(OC)c(OC)ccc3c2=O)cc1OC` was tested, and the survivor count [12] was 6 of 6 and the survivor count [13] was 6 of 6.
